Measurements taken from article PMC11999606, “Dynein light chains 1 and 2 are auxiliary proteins of pH-sensitive Kir4.1 channels” (The Journal of Biological Chemistry, 2025).
These are yes or no findings as the source states them, for the method shown. For some of these results: Binding can be weak; no strength is given. For some of these results: Where a sequence is shown, tags or fusion partners need not be part of it. For some of these results: Binding seen in cells or lysates may run through a third protein.

How the values were obtained:
[1] = target: T1, GST-tagged ΔTQT Kir4.1 N-term peptide (UniProt P78508); test: SEC; fluorescence SEC (Shimadzu) on a Superdex 200 column in PBS; shift of the GFP-tagged protein after incubation with the GST-tagged partner; both purified
T1 sequence: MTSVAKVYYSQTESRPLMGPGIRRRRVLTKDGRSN

[2] = target: T2, GST-tagged WT Kir4.1 N-term peptide (residues 1-38) (UniProt P78508); test: as above
T2 sequence: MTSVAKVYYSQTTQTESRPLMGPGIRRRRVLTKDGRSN

[3] = target: T3, N-terminal FLAG-GFP-tagged full-length Kir4.1 (UniProt P78508); test: co-IP; Kir4.1 WT or ΔTQT purified from HEK293 cells; copurified endogenous LC8 seen on 1D gels by Coomassie staining and by immunoblot with anti-LC8 antibodies
T3 sequence: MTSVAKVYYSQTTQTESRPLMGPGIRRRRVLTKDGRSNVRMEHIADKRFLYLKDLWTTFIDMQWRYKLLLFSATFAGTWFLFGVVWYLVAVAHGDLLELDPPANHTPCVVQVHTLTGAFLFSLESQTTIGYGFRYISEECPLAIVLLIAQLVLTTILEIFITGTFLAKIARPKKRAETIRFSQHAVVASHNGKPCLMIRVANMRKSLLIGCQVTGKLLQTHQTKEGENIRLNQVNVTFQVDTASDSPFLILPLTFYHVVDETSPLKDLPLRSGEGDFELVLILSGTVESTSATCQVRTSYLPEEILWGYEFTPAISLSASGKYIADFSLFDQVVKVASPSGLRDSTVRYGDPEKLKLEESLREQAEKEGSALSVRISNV

[4] = target: T4, full-length Kir4.1 protein with the ΔTQT deletion (UniProt P78508); test: as above
T4 sequence: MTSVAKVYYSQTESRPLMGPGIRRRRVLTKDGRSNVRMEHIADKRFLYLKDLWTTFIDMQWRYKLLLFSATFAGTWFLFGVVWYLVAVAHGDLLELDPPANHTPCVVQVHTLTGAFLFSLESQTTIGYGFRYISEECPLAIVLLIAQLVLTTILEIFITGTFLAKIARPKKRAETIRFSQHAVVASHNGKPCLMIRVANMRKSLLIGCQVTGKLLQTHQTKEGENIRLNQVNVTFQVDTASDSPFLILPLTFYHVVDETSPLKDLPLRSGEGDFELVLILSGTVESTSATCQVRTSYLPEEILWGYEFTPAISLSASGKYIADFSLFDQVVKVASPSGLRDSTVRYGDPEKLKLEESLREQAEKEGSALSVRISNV

[5] = target: T3, N-terminal FLAG-GFP-tagged full-length Kir4.1; test: pull-down; competition: GST-LC8 plus added free LC8; F-GFP-Kir4.1 in detergent-solubilized membrane fraction; PBS; read by GFP signals; only the binder purified
[6] = target: T3, N-terminal FLAG-GFP-tagged full-length Kir4.1; test: pull-down; GST-LC8, free GST, or GST-LC8 plus free LC8 with purified F-GFP-Kir4.1; PBS; read by GFP signals; both purified
[7] = target: GST-tagged LC8 of the peptide binding assay; test: SEC; fluorescence SEC (Shimadzu) on a Superdex 200 column in PBS; shift of the GFP-tagged protein after incubation with the GST-tagged partner; both purified

For GFP-tagged LC8, the binding [1] was “no binding” and the binding [2] was “binds”.

“dynein light chain 1 (human (endogenous in HEK293))” was tested, and the binding [3] was “binds” and the binding [4] was “no binding”.

For free LC8, the binding [5] was “binds” and the binding [6] was “binds”.

B1: GFP-tagged ΔTQT Kir4.1 N-term peptide (peptide, UniProt P78508 1-38)
chain: MTSVAKVYYSQTESRPLMGPGIRRRRVLTKDGRSN
For B1, the binding [7] was “no binding”.
